According to PMC12331172:
These are yes or no findings as the source states them, for the method shown. In cells and extracts the contact can be indirect. A yes stands for co-enrichment or nearness to the bait. Other partners may have been found. A no says only that the protein was not detected with the bait. Tags and fused reporters may be left off the sequences shown.

The chains behind the UniProt entries cited, without tags or fusion partners.
UniProt P08736: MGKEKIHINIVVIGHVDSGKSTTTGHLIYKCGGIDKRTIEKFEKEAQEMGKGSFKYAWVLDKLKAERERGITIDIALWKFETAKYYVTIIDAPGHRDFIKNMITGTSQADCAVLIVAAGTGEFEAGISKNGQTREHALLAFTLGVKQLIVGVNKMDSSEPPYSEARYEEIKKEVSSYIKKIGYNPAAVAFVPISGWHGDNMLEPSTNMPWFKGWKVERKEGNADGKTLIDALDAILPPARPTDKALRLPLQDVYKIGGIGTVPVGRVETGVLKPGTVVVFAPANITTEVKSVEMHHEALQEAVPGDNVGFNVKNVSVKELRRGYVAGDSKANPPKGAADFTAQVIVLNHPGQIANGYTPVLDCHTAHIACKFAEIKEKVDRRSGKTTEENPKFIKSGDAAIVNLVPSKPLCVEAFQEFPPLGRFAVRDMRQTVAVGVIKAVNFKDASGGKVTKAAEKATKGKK

T1: TAP-Trus fusion protein (Toys are us, Drosophila orthologue of PDCD2L) (Drosophila melanogaster) (UniProt Q9VG62)
T1 sequence: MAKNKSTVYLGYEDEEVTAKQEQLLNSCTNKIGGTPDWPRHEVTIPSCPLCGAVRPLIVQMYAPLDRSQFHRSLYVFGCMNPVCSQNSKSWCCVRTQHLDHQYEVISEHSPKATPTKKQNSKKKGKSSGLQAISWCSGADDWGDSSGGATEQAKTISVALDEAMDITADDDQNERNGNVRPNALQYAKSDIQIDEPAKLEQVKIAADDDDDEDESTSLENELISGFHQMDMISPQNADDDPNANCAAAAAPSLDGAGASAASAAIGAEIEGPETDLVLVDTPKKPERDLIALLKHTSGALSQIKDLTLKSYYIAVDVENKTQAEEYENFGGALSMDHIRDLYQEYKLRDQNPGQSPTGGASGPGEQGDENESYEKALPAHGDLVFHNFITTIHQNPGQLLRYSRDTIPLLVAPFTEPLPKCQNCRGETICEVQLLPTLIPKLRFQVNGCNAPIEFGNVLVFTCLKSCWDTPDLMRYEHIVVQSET


Target: T1, TAP-Trus fusion protein (Toys are us, Drosophila orthologue of PDCD2L) (Drosophila melanogaster)
Test: affinity purification with mass spectrometry; TAP-Trus stably expressed in Drosophila Kc cells (one liter); tandem affinity purification on IgG-Sepharose and Calmodulin-Sepharose beads; eluate TCA-precipitated, SDS-PAGE, Coomassie bands excised, trypsinized, MALDI mass spectrometry

| Molecule | binding |
| --- | --- |
| eukaryotic translation Elongation Factor 1 alpha 1 (eEF1α1) (from UniProt P08736 1-463) | binds |
| String of pearls (Sop), protein S2 of the 40S ribosomal subunit (RpS2) (from UniProt P31009 1-267) | binds |
| Zfrp8 (Zinc finger protein RP-8), Drosophila orthologue of PDCD2 (protein, UniProt Q9W1A3 1-347) MEIDLGFAEKSDNGAWLSNRYFPSKLGGQPAWLELEALPPTSQLQCSKCRAPKSFLAQLYAPFEDEYNFHRSIYVFLCRNSDCQEAQNASNFTVLRSQLPRKNKFFSEEEPSDVGQPLPAVPCLKKLCAACGCHAPHACSKCKAIHYCSPEHQRAHWPQHKPNCGAPEVATEKPLTQIVFPEFEIVMDSNPVESGEEDKDDEARLAEFQELESSGKTGDLSNVSEAEMDKYFGNSAAADDKTFRQFKKQTAAEPDQIVRYKRGGQPLWITNTVKTVEDQLNKLPNCIACGGERQFEFQIMPQALTLLEDENLDWGVLAVYTCAKSCPIDGYVEELLIKQDIVAEDQS | no binding |
